# According to PubChem BioAssay (EPA / NIEHS):
# Protein sequences, listed by entry. Tags and fused reporters are not part of them. Lines headed by an entry give the natural chain unless they say otherwise; changes in a name come on top.
# UniProt P11509: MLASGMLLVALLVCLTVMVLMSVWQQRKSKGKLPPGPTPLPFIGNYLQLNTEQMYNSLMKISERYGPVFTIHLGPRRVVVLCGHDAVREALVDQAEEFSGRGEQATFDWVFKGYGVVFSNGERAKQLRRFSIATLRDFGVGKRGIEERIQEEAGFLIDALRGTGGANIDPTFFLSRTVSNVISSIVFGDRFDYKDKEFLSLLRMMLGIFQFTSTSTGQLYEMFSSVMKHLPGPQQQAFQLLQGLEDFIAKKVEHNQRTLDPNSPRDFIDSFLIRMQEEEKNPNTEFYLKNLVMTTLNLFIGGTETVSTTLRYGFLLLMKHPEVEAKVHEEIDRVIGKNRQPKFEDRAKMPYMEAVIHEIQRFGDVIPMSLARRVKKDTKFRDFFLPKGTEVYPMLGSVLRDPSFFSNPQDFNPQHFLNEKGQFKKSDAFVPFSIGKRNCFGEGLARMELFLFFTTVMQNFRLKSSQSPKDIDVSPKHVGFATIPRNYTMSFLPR
# Inconclusive results, whose numbers are uncertain, are shown. Potencies beside an inconclusive call are fits to weak or partial responses and may not hold up.
# Molecular target: human CYP2A6, CYP2A6 (gene 1548) (UniProt P11509)
# Experiment: NVS_ADME_hCYP2A6: NovaScreen (NVS) CYP450-related Enzyme Activity (ADME) Assay for human CYP2A6 (AID 2283099); active = hit-call score of the fitted dose curve at least 0.9, where 1 is the maximum; inconclusive = response in the unintended direction; inactive = score below 0.9
# In short: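 Loss of fluorescence signal relative to acetonitrile vehicle reported CYP2A6 inhibition in a cell-free system using insect-cell-derived enzyme. Readings were taken at 0.5 h; top concentration in follow-up dose series was 20 uM.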
row,SMILES,AC50
1,Oc1ccc(Cl)cc1Cc1ccccc1,inconclusive: 2.24 µM
2,c1nc[nH]n1,inconclusive: 10 µM
3,CNC(=S)S,inconclusive: 2.43 µM
4,Clc1ccc(C(c2ccc(Cl)cc2)C(Cl)Cl)cc1,inconclusive: 10 µM
